# Laboratory results as given in article PMC9915769, “A novel binding site on the cryptic intervening domain is a motif-dependent regulator of O-GlcNAc transferase” (Research Square, 2023).
# Sequences of proteins named here, by UniProt entry; tags and fusion partners are left off. A change or cut given only in a name is not applied to a line headed by its entry.
# UniProt Q5JPB2: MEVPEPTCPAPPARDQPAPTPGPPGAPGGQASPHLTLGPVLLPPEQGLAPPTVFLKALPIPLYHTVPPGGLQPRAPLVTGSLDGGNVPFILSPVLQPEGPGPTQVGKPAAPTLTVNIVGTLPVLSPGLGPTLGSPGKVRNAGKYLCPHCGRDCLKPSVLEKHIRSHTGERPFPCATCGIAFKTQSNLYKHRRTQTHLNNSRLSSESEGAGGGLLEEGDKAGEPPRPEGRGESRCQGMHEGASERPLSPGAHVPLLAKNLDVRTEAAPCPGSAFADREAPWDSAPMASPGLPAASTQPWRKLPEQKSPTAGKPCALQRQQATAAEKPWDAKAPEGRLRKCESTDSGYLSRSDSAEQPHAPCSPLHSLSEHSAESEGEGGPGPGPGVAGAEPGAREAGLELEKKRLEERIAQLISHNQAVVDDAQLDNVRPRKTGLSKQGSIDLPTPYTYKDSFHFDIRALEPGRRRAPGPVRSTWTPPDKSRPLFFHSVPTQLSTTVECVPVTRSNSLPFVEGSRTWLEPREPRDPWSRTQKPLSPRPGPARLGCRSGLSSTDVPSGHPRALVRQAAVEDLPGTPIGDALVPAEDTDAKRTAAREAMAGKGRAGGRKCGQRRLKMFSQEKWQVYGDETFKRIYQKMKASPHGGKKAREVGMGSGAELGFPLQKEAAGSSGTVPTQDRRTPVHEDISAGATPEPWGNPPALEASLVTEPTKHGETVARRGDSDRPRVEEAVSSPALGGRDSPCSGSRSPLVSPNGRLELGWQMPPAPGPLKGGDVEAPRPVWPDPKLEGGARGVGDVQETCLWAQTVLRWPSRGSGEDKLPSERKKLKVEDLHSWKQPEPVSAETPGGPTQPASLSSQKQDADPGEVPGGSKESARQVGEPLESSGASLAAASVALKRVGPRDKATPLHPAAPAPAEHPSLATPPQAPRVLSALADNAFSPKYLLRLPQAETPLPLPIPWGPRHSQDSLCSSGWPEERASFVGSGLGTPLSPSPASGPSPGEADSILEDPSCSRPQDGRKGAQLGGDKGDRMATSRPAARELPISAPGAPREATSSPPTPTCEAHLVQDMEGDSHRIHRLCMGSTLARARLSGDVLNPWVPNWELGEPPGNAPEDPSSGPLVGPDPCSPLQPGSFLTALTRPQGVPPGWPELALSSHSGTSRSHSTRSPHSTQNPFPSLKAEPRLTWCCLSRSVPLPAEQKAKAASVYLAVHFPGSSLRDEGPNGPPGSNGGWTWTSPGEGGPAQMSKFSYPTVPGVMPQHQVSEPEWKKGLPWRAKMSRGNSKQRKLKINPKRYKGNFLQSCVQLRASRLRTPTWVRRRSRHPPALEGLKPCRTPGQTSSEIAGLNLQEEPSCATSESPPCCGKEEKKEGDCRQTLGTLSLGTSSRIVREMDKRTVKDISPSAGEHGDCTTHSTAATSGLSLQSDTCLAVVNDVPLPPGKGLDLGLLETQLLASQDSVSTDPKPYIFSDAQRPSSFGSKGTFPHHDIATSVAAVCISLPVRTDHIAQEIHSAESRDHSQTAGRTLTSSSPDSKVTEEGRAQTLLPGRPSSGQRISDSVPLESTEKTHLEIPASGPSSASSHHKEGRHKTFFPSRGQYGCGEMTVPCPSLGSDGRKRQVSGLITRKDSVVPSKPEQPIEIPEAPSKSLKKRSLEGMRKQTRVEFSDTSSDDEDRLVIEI
# Results are given in words; binding and its absence hold for the method and conditions named. For some of these results: Binding seen in cells or lysates may run through a third protein. Some binding calls cover weakened binding; strength is not graded here. For some of these results: Where a sequence is shown, tags or fusion partners need not be part of it.
# B1: full-length O-GlcNAc transferase (OGT), recombinant (enzyme, UniProt O15294-3 1-1036)
# chain: MASSVGNVADSTGLAELAHREYQAGDFEAAERHCMQLWRQEPDNTGVLLLLSSIHFQCRRLDRSAHFSTLAIKQNPLLAEAYSNLGNVYKERGQLQEAIEHYRHALRLKPDFIDGYINLAAALVAAGDMEGAVQAYVSALQYNPDLYCVRSDLGNLLKALGRLEEAKACYLKAIETQPNFAVAWSNLGCVFNAQGEIWLAIHHFEKAVTLDPNFLDAYINLGNVLKEARIFDRAVAAYLRALSLSPNHAVVHGNLACVYYEQGLIDLAIDTYRRAIELQPHFPDAYCNLANALKEKGSVAEAEDCYNTALRLCPTHADSLNNLANIKREQGNIEEAVRLYRKALEVFPEFAAAHSNLASVLQQQGKLQEALMHYKEAIRISPTFADAYSNMGNTLKEMQDVQGALQCYTRAIQINPAFADAHSNLASIHKDSGNIPEAIASYRTALKLKPDFPDAYCNLAHCLQIVCDWTDYDERMKKLVSIVADQLEKNRLPSVHPHHSMLYPLSHGFRKAIAERHGNLCLDKINVLHKPPYEHPKDLKLSDGRLRVGYVSSDFGNHPTSHLMQSIPGMHNPDKFEVFCYALSPDDGTNFRVKVMAEANHFIDLSQIPCNGKAADRIHQDGIHILVNMNGYTKGARNELFALRPAPIQAMWLGYPGTSGALFMDYIITDQETSPAEVAEQYSEKLAYMPHTFFIGDHANMFPHLKKKAVIDFKSNGHIYDNRIVLNGIDLKAFLDSLPDVKIVKMKCPDGGDNADSSNTALNMPVIPMNTIAEAVIEMINRGQIQITINGFSISNGLATTQINNKAATGEEVPRTIIVTTRSQYGLPEDAIVYCNFNQLYKIDPSTLQMWANILKRVPNSVLWLLRFPAVGEPNIQQYAQNMGLPQNRIIFSPVAPKEEHVRRGQLADVCLDTPLCNGHTTGMDVLWAGTPMVTMPGETLASRVAASQLTCLGCLELIAKNRQEYEDIAVKLGTDLEYLKKVRGKVWKQRISSPLFNTKQYTMELERLYLQMWEHYAAGNKPDHMIKPVEVTESA
# B2: SMG9 peptide (140-155 aa), unlabeled (peptide, UniProt Q9H0W8 140-155)
# peptide: QRPTQPVYQIQNRGMG
# B3: ZNF831 peptide (928-943 aa) (peptide, UniProt Q5JPB2 928-943)
# peptide: VLSALADNAFSPKYLL
# B4: cMyc-tagged SMG9 (wild type) (protein, UniProt Q9H0W8 1-520)
# chain: MSESGHSQPGLYGIERRRRWKEPGSGGPQNLSGPGGRERDYIAPWERERRDASEETSTSVMQKTPIILSKPPAERSKQPPPPTAPAAPPAPAPLEKPIVLMKPREEGKGPVAVTGASTPEGTAPPPPAAPAPPKGEKEGQRPTQPVYQIQNRGMGTAAPAAMDPVVGQAKLLPPERMKHSIKLVDDQMNWCDSAIEYLLDQTDVLVVGVLGLQGTGKSMVMSLLSANTPEEDQRTYVFRAQSAEMKERGGNQTSGIDFFITQERIVFLDTQPILSPSILDHLINNDRKLPPEYNLPHTYVEMQSLQIAAFLFTVCHVVIVVQDWFTDLSLYRFLQTAEMVKPSTPSPSHESSSSSGSDEGTEYYPHLVFLQNKARREDFCPRKLRQMHLMIDQLMAHSHLRYKGTLSMLQCNVFPGLPPDFLDSEVNLFLVPFMDSEAESENPPRAGPGSSPLFSLLPGYRGHPSFQSLVSKLRSQVMSMARPQLSHTILTEKNWFHYAARIWDGVRKSSALAEYSRLLA
# Legend:
# [1] = target: T1, fluorescently labeled 5-FAM-SMG9 peptide (human) (UniProt Q9H0W8); assay: fluorescence polarisation; saturation: 2-fold serial dilutions of OGT (WT or mutant) plus equal volume of 0.4 uM 5-FAM-SMG9; TBS (150 mM NaCl, 20 mM Tris-HCl, pH 8.0); 20 min, room temperature; both purified
# T1 sequence (peptide, 5-FAM label (position not stated)): QRPTQPVYQIQNRGMG
# [2] = target: T1, fluorescently labeled 5-FAM-SMG9 peptide (human); assay: fluorescence polarisation; competition: 2-fold serial dilutions of unlabeled peptide plus equal volume of 20 uM OGT with 0.4 uM 5-FAM-SMG9; TBS (150 mM NaCl, 20 mM Tris-HCl, pH 8.0); 20 min, room temperature; apparent binding affinity (EC50); both purified
# [3] = target: T2, OGT4.5 (crystallization construct of OGT with only 4.5 of 13.5 TPR repeats) (human) (UniProt O15294); assay: crystal structure; OGT4.5 co-crystallised with 2 mM peptide and 1 mM UDP-GlcNAc; hanging drop, 20 C; both purified
# T2 sequence: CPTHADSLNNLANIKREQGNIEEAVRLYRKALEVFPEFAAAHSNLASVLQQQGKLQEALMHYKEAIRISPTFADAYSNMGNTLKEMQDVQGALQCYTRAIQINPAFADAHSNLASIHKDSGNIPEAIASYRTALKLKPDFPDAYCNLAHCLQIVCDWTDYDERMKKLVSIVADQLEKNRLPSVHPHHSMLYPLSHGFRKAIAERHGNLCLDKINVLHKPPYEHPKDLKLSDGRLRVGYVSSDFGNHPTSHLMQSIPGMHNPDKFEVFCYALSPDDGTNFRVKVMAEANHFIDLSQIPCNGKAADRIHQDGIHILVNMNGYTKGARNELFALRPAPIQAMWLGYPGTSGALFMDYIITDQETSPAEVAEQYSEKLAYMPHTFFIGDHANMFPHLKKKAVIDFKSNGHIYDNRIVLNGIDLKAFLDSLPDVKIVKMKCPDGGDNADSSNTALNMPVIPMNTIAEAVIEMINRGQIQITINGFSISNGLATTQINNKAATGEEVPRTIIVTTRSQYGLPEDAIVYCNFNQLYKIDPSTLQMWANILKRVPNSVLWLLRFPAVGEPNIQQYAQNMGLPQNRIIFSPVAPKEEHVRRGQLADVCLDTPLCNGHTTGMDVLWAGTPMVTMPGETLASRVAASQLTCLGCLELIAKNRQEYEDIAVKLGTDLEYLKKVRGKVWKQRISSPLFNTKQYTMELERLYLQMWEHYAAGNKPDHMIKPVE
# [4] = target: T3, full-length O-GlcNAc transferase (OGT), recombinant (human) (UniProt O15294); assay: fluorescence polarisation; competition: 2-fold serial dilutions of unlabeled peptide plus equal volume of 20 uM OGT with 0.4 uM 5-FAM-SMG9; TBS (150 mM NaCl, 20 mM Tris-HCl, pH 8.0); 20 min, room temperature; apparent binding affinity (EC50); both purified
# T3 sequence: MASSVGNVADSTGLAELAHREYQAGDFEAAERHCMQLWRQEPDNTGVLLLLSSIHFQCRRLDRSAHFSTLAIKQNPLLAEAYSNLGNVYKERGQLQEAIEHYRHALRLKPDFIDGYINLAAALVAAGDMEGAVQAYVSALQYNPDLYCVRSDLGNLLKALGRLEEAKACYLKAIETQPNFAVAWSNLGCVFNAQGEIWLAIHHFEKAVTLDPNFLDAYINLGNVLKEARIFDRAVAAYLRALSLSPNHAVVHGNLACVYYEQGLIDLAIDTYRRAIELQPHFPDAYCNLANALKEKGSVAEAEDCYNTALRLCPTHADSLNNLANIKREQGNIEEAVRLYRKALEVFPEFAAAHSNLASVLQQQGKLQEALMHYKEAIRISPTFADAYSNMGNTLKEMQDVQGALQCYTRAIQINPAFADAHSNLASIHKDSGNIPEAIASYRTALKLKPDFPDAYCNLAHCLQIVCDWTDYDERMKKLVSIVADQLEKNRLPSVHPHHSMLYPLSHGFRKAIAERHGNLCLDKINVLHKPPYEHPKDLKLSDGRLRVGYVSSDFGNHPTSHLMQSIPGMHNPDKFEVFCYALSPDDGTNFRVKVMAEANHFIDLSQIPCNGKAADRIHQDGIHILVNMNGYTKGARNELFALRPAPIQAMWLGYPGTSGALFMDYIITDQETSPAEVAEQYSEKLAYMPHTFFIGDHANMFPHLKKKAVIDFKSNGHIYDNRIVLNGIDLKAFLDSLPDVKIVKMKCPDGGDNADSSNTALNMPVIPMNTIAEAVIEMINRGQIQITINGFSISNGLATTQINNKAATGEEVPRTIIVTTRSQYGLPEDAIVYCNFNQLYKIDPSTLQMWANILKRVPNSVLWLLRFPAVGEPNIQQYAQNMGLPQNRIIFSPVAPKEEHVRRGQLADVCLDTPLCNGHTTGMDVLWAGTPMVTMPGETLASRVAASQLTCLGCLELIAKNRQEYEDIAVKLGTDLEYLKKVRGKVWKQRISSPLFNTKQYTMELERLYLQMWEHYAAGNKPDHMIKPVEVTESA
# [5] = target: T4, Flag-tagged OGT (wild type), mammalian expression (human) (UniProt O15294); assay: co-IP; HEK293 cells (legend: TRex-293) co-transfected with Flag-OGT and cMyc-SMG9 constructs; lysate (150 mM NaCl, 1% NP-40, 20 mM Tris-HCl pH 7.4) on Flag M2 agarose 16 h at 4 C; western blot
# T4 sequence: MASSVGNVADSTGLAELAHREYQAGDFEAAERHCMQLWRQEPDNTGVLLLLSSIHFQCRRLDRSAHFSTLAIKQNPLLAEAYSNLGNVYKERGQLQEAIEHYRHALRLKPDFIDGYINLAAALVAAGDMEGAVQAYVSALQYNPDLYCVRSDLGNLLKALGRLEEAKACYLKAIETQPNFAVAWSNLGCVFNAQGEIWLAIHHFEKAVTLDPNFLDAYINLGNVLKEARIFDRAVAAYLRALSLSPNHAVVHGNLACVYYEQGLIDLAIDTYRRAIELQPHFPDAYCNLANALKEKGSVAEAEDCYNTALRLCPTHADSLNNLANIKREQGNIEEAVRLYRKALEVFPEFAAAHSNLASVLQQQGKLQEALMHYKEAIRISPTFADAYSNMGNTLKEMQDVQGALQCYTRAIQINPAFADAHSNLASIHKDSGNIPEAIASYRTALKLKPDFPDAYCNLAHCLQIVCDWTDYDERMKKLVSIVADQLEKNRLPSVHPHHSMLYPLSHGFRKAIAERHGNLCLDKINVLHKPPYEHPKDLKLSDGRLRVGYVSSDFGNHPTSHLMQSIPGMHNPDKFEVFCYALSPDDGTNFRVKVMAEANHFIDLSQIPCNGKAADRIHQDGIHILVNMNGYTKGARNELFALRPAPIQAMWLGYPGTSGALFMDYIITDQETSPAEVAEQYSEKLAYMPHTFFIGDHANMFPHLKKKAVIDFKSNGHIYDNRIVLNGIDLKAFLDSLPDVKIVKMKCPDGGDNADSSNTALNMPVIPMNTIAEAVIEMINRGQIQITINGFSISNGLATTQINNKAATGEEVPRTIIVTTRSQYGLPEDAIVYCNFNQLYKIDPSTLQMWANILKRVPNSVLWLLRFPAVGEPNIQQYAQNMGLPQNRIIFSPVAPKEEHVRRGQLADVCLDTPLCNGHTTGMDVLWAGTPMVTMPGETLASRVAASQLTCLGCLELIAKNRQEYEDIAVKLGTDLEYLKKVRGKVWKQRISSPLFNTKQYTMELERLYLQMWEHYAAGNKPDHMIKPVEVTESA
Binder,binding [1],binding [2],binding [3],binding [4],binding [5]
B1,binds,binds,,,
B2,,,binds,binds,
B3,,,binds,binds,
B4,,,,,binds
